The subject of this experiment is HEI-OC1 cells. The experiment in a line: Caspase-Glo 3/7 assay in cisplatin-treated HEI-OC1 cells. As to conditions: HEI-OC1, read-out: calculated IC50, percentage of protection from caspase-3/7 activity.

SMILES strings stand for the structures.

With `O=C(CCCCCCC(=O)Nc1ccccc1)NO` [Vorinostat], the IC50 was 14.4 µM.
